Measured data: PubChem BioAssay AID1259425 (University of Nebraska Medical Center, 2018)
Assay: 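Seek colon cancer weak points whose silencing resembles KSR1 loss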 (primary screen). System: HCT116 human colon cancer cells. Reagent: siRNA pool against human genes, 50 nM siRNA. Measurement: 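mRNA of six signature genes measured together by branched-DNA assay after 50 nM siRNA pool, blank removed, divided by geometric mean of two housekeeping genes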. Reading the numbers: BNIP3L mRNA: higher = more BNIP3L transcript after knockdown.
Here is an unselected part of about 14,000 deposited reagents. Not all columns of the deposit are shown. Not stated in the record: the time to read-out.

After knock-down of DYNLRB2 [SID364004525] the results were BNIP3L mRNA, set 1 = 0.0741. For ZNF414 [SID364003951], the values are BNIP3L mRNA, set 1 = 0.192. Against CCKAR [SID363992027], the entry reads BNIP3L mRNA, set 1 = 0.139. For CFTR [SID363991815], the entry reads BNIP3L mRNA, set 1 = 0.049. HACD3 [SID364000082] scored BNIP3L mRNA, set 1 = 0.187. Knock-down of TFDP1 [SID363997827] came out at: BNIP3L mRNA, set 1 = 0.0937.

Knock-down of ERGIC1 [SID364001712] came out at: BNIP3L mRNA, set 1 = 0.161. CGRRF1 [SID363997359] showed BNIP3L mRNA, set 1 = 0.066. Depletion of MGAT4A [SID363998146] gave: BNIP3L mRNA, set 1 = 0.0744. After knock-down of BDP1 [SID364001065], the screen gave BNIP3L mRNA, set 1 = 0.383. Against CYP11B2 [SID363991821] the deposit lists BNIP3L mRNA, set 1 = 0.0945. Knock-down of DAZ2 [SID364001631] gave: BNIP3L mRNA, set 1 = 0.106.

Knock-down of CCNG2 [SID363995340] came out at: BNIP3L mRNA, set 1 = 0.156. Knock-down of CPEB1 [SID364003374] resulted in: BNIP3L mRNA, set 1 = 0.209. Against PSMC3IP [SID363998411], the values are BNIP3L mRNA, set 1 = 0.13. After knock-down of SNAPC4 [SID363994230], the screen gave BNIP3L mRNA, set 1 = 0.0919. PYCR2 [SID363998440] gave BNIP3L mRNA, set 1 = 0.0458.

4 neighbouring records from above:
CFTR [SID363991815] — BNIP3L mRNA, set 1 = 0.049
HACD3 [SID364000082] — BNIP3L mRNA, set 1 = 0.187
TFDP1 [SID363997827] — BNIP3L mRNA, set 1 = 0.0937
ERGIC1 [SID364001712] — BNIP3L mRNA, set 1 = 0.161

The listing continues.
With knock-down of DHX15 [SID363992635] the results were BNIP3L mRNA, set 1 = 0.049. After knock-down of DNAJC1 [SID364002419], the screen gave BNIP3L mRNA, set 1 = 0.0812. TATDN1 [SID364003746] showed BNIP3L mRNA, set 1 = 0.436. Against PYY2 [SID364002003], the values are BNIP3L mRNA, set 1 = 0.409. Silencing of LRIG1 [SID363999561] resulted in: BNIP3L mRNA, set 1 = 0.107. With knock-down of GNG12 [SID364001215], the record shows BNIP3L mRNA, set 1 = 0.0729.

MACO1 [SID364000872] gave BNIP3L mRNA, set 1 = 0.0915. With knock-down of VCAM1 [SID363992375] the results were BNIP3L mRNA, set 1 = 0.118. SNRPD2 [SID363995567] scored BNIP3L mRNA, set 1 = 0.134. For PPEF2 [SID363997063], the entry reads BNIP3L mRNA, set 1 = 0.0725. EIF3G [SID363994822] scored BNIP3L mRNA, set 1 = 0.136.
